Laboratory results published in publication PMC11345394.
Results are given in words; binding and its absence hold for the method and conditions named. Binding seen in cells or lysates may run through a third protein. Some entries that bind do so weakly or less than the wild type.

Sequences of proteins named here, by UniProt entry; tags and fusion partners are left off. A change or cut given only in a name is not applied to a line headed by its entry.
UniProt Q8N884: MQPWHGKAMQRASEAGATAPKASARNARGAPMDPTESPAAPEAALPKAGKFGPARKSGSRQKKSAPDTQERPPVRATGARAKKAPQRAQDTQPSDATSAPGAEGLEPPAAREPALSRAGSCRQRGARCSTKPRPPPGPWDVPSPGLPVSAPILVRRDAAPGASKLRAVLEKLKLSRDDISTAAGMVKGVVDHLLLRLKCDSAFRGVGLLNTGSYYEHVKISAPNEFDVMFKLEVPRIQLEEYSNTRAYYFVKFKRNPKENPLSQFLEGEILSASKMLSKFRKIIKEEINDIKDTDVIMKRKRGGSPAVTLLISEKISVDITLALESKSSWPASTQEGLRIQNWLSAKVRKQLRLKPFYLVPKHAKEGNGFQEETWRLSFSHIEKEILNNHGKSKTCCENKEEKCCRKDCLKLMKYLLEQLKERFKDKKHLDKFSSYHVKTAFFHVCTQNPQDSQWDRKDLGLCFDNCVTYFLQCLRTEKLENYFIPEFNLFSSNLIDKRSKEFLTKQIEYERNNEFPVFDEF
UniProt Q92793: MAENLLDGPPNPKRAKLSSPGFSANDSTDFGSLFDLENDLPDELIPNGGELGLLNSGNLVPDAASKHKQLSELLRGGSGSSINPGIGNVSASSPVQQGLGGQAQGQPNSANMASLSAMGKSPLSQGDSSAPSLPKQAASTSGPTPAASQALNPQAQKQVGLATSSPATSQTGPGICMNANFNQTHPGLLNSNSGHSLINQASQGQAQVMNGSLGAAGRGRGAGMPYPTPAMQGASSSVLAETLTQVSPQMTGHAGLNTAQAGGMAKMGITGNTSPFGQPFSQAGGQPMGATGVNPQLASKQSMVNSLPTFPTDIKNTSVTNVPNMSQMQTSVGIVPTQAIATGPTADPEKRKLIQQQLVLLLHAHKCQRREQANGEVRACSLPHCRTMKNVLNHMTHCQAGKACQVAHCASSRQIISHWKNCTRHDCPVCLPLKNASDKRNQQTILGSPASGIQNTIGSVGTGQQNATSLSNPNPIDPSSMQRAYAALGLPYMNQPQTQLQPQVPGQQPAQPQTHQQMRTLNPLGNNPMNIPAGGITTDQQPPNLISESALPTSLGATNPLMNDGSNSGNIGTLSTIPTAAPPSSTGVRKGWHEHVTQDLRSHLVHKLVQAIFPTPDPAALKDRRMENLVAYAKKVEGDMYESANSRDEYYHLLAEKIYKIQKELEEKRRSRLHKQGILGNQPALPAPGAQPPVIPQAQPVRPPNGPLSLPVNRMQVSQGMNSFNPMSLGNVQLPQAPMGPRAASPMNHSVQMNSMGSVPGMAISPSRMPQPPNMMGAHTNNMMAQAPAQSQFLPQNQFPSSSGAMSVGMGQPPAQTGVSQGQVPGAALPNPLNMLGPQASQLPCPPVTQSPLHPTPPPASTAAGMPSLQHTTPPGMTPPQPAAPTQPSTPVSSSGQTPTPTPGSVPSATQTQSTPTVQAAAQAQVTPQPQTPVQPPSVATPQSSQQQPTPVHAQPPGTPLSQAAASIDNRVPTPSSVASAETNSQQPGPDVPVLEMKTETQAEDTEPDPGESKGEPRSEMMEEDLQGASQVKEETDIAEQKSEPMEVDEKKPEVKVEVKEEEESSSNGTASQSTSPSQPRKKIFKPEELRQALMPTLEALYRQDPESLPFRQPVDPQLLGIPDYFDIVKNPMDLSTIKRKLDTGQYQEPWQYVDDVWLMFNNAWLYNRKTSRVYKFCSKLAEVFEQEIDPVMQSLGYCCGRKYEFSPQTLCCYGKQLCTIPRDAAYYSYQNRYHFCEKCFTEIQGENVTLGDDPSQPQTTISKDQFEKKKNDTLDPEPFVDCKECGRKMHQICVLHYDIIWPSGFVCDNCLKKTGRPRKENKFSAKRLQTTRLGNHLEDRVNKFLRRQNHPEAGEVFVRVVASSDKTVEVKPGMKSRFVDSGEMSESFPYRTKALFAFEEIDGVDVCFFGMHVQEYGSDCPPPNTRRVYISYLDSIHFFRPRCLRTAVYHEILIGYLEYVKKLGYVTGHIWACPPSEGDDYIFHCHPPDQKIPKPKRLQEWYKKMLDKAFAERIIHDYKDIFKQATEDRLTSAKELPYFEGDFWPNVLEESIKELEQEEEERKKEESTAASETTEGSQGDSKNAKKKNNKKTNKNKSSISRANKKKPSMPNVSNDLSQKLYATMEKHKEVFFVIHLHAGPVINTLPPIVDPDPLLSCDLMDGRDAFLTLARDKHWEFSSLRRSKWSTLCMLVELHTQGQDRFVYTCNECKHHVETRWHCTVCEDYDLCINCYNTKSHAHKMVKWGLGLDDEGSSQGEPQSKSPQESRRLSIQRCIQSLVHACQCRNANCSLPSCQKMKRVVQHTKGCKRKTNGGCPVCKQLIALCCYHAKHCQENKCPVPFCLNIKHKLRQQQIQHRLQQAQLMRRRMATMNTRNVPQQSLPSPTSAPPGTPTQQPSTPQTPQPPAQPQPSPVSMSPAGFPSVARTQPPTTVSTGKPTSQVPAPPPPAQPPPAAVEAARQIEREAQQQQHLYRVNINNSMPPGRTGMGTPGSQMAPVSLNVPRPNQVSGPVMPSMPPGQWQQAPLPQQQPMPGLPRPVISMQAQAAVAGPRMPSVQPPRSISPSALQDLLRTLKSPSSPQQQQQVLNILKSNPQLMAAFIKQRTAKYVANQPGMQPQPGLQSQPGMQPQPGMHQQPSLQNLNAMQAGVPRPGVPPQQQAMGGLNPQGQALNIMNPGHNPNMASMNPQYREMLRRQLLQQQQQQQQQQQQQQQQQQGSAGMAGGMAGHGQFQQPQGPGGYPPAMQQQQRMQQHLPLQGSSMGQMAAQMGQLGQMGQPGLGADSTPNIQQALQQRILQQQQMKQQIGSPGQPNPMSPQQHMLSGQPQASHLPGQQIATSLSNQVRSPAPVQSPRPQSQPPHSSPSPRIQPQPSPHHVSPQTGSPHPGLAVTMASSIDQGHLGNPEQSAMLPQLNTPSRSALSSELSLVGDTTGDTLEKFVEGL
UniProt P09874: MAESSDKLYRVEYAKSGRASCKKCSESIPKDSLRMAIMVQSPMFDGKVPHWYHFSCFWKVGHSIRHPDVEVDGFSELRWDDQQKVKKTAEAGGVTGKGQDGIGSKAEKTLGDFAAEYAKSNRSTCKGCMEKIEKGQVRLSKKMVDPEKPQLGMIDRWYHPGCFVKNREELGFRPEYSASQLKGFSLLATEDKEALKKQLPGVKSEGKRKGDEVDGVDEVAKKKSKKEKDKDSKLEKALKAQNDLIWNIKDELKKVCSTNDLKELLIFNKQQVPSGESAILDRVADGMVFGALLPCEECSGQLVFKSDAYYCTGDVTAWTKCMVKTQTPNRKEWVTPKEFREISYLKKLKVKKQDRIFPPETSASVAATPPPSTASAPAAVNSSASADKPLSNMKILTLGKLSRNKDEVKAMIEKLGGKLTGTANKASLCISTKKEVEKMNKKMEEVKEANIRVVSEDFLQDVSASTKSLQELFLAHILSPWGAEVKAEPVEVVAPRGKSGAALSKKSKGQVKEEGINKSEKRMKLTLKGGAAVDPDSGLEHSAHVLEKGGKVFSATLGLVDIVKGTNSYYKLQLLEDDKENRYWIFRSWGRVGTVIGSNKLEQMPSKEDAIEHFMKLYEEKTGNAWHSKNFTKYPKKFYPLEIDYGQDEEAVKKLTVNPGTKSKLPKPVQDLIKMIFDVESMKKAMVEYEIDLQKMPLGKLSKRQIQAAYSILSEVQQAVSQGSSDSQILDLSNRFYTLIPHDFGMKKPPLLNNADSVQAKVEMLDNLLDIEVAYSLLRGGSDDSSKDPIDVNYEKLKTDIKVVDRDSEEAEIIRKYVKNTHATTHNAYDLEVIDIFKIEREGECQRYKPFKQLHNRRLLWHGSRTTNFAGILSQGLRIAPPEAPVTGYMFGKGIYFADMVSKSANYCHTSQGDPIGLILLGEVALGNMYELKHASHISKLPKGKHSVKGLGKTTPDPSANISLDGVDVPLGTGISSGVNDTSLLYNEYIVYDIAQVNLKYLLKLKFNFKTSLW

What was measured:
[1] = molecular target: cyclic GMP-AMP synthase (cGAS), endogenous (human (endogenous in HeLa)) (UniProt Q8N884); experiment: co-IP; endogenous proteins from HeLa lysate, immunoprecipitated with anti-cGAS or anti-CBP antibody; NETN buffer (300 mM NaCl, 20 mM Tris-base, 1 mM EDTA, 0.5% NP-40), 4 °C, 6 h; immunoblot
full-length Flag-cGAS = full-length Flag-cGAS (UniProt Q8N884); experiment: co-IP; anti-Flag immunoprecipitates of HeLa cells transfected with Flag-cGAS constructs; partner detected by immunoblot; without and at the indicated times after 8 Gy γ-ray; NETN buffer (300 mM NaCl), 4 °C
Flag-cGAS K254R mutant = Flag-cGAS K254R mutant (UniProt Q8N884); experiment: as above
[2] = molecular target: CREB-binding protein (CBP), endogenous (human (endogenous in HeLa)) (UniProt Q92793); experiment: co-IP; endogenous proteins from HeLa lysate, immunoprecipitated with anti-cGAS or anti-CBP antibody; NETN buffer (300 mM NaCl, 20 mM Tris-base, 1 mM EDTA, 0.5% NP-40), 4 °C, 6 h; immunoblot

CREB-binding protein (CBP), endogenous (from UniProt Q92793 1-2442)
binding [1]: binds
binding (full-length Flag-cGAS): binds

PARP1, endogenous (from UniProt P09874 1-1014)
binding (Flag-cGAS K254R mutant): binds

cyclic GMP-AMP synthase (cGAS), endogenous (from UniProt Q8N884 1-522)
binding [2]: binds
